Values from PubChem BioAssay AID743121 (NCATS, 2013)
The deposit covers about 26,000 reagents; shown is an unselected part. 167 of them (0.63%) count as active. 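Calls are per gene from RSA p-values that are not deposited; an individual active-marked siRNA can sensitise only weakly.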 A number with no mark means an inactive call. Reagents against one gene are numbered here. Further read-outs or replicates are left out here.

- Screen: 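Knock-downs that sensitise breast cancer cells to camptothecin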 (primary screen)
- Cell system: MDA-MB-231 cells, a human breast cancer line
- Reagent: single siRNA against human genes, 20 nM siRNA (0.8 pmol per well)
- Time to read-out: 120 h (drug added 48 h after transfection, read 72 h later)
- Challenge: camptothecin 20 nM (about EC30) for 72 h; vehicle 0.1% DMSO in parallel plates
- Measured: 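CellTiter-Glo ATP signal, scaled to control siRNA as percent viability; sensitisation given as log2 of untreated divided by camptothecin-treated viability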
- Reading the numbers: log2 vehicle/camptothecin viability: higher = stronger sensitisation to camptothecin; viability with camptothecin: higher = more viable cells
- Hit rule: 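Active genes have an RSA gene-level p-value below 0.001, computed from the ratios of their separate siRNAs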

After knock-down of LOXL4 #1 the results were log2 vehicle/camptothecin viability -0.738; viability with camptothecin (% of control) = 65.7.
LOXL4 #2 scored log2 vehicle/camptothecin viability 0.121; viability with camptothecin (% of control) = 24.9.
For LOXL4 #3, the entry reads log2 vehicle/camptothecin viability -0.334; viability with camptothecin (% of control) = 107.
With knock-down of LOXL4 #4, the screen gave log2 vehicle/camptothecin viability -0.584; viability with camptothecin (% of control) = 49.3.
Against POLI #1, the entry reads log2 vehicle/camptothecin viability 0.103; viability with camptothecin (% of control) = 71.2.
POLI #2 showed log2 vehicle/camptothecin viability -0.446; viability with camptothecin (% of control) = 66.
POLI #3 scored log2 vehicle/camptothecin viability -0.16; viability with camptothecin (% of control) = 95.
For PDGFRL #1, the entry reads log2 vehicle/camptothecin viability -0.51; viability with camptothecin (% of control) = 57.7.
For PDGFRL #2, the entry reads log2 vehicle/camptothecin viability -0.257; viability with camptothecin (% of control) = 123.
With knock-down of PDGFRL #3, the screen gave log2 vehicle/camptothecin viability 0.222; viability with camptothecin (% of control) = 39.5.
For PDGFRL #4, the entry reads log2 vehicle/camptothecin viability 0.727; viability with camptothecin (% of control) = 24.4.
With knock-down of CAPN10 #1 the results were log2 vehicle/camptothecin viability 0.239; viability with camptothecin (% of control) = 98.4.
For CAPN10 #2 the deposit lists log2 vehicle/camptothecin viability 0.54; viability with camptothecin (% of control) = 53.3.
CAPN10 #3 gave log2 vehicle/camptothecin viability -0.279; viability with camptothecin (% of control) = 61.
Silencing of CAPN10 #4 resulted in: log2 vehicle/camptothecin viability -0.588; viability with camptothecin (% of control) = 67.2.
CAPN10 #5 scored log2 vehicle/camptothecin viability 0.254; viability with camptothecin (% of control) = 41.9.
CAPN10 #6 gave log2 vehicle/camptothecin viability -0.173; viability with camptothecin (% of control) = 89.7.
Against CAPN10 #7, the values are log2 vehicle/camptothecin viability 1.09; viability with camptothecin (% of control) = 36.8.
With knock-down of CAPN10 #8 the results were log2 vehicle/camptothecin viability -0.396; viability with camptothecin (% of control) = 117.
For CAPN10 #9 the deposit lists log2 vehicle/camptothecin viability -0.0307; viability with camptothecin (% of control) = 73.2.

Copied from the list:
PDGFRL #3, viability with camptothecin (% of control) = 39.5
CAPN10 #4, viability with camptothecin (% of control): 67.2
